Reference: the supplement of paper PMC7238544
Counter-ions that a name gives are not always drawn. ± gives the standard deviation of the averaged measurements. Some of the results follow. The data scatter; read single values as rough.

Assays:
hAMSC donor 1 [1] = experiment: Hoechst total cell count ratio vs vehicle control; higher = more cells (less toxicity)
hAMSC donor 2 [2] = experiment: as above
hAMSC donor 1 [3] = experiment: transgenic luciferase activity (RLU/mg protein) fold change vs vehicle control (ratio); higher = more transgene expression
hAMSC donor 2 [4] = experiment: as above
hAMSC donor 1 [5] = experiment: transfection efficiency (EGFP+ cells / Hoechst count) fold change vs vehicle control (ratio); hAMSC are human adipose-derived mesenchymal stem cells given an EGFP-luciferase plasmid by lipofection; higher = enhanced transfection
hAMSC donor 2 [6] = experiment: as above
[7] = priming compound concentration 0.2 µM
[8] = priming compound concentration 1.7 µM
[9] = priming compound concentration 13 µM

Row | Structure (SMILES) | Hoechst total cell count ratio (hAMSC donor 1 [1]; [7]) | Hoechst total cell count ratio (hAMSC donor 1 [1]; [8]) | Hoechst total cell count ratio (hAMSC donor 1 [1]; [9]) | Hoechst total cell count ratio (hAMSC donor 2 [2]; [7]) | Hoechst total cell count ratio (hAMSC donor 2 [2]; [8]) | Hoechst total cell count ratio (hAMSC donor 2 [2]; [9]) | transgenic luciferase activity (hAMSC donor 1 [3]; [7]) | transgenic luciferase activity (hAMSC donor 1 [3]; [8]) | transgenic luciferase activity (hAMSC donor 1 [3]; [9]) | transgenic luciferase activity (hAMSC donor 2 [4]; [7]) | transgenic luciferase activity (hAMSC donor 2 [4]; [8]) | transgenic luciferase activity (hAMSC donor 2 [4]; [9]) | transfection efficiency (hAMSC donor 1 [5]; [7]) | transfection efficiency (hAMSC donor 1 [5]; [8]) | transfection efficiency (hAMSC donor 1 [5]; [9]) | transfection efficiency (hAMSC donor 2 [6]; [7]) | transfection efficiency (hAMSC donor 2 [6]; [8]) | transfection efficiency (hAMSC donor 2 [6]; [9])
1 | O=c1ncc(F)c[nH]1 [5-Fluoro-2-pyrimidone] | 0.987 ± 0.15 | 1.25 ± 0.26 | 1.26 ± 0.23 | 1.28 ± 0.16 | 1.03 ± 0.025 | 1.04 ± 0.075 | 1.01 ± 0.35 | 1.76 ± 1.6 | 0.141 ± 0.043 | 0.605 ± 0.086 | 0.787 ± 0.17 | 0.344 ± 0.31 | 0.966 ± 0.32 | 1.15 ± 0.27 | 0.828 ± 0.17 | 1.11 ± 0.15 | 1.02 ± 0.037 | 1.08 ± 0.12
2 | CC1=C(/C=C/C(C)=C/C=C/C(C)=C/C(=O)O)C(C)(C)CCC1 [trans-Retinoic acid] | 1 ± 0.038 | 0.877 ± 0.15 | 0.912 ± 0.039 | 0.906 ± 0.21 | 0.754 ± 0.022 | 1.28 ± 0.16 | 0.812 ± 0.12 | 0.687 ± 0.22 | 0.706 ± 0.26 | 0.594 ± 0.18 | 0.709 ± 0.022 | 0.711 ± 0.071 | 1.23 ± 0.098 | 0.839 ± 0.38 | 1.13 ± 0.34 | 1.29 ± 0.22 | 1.12 ± 0.038 | 0.718 ± 0.15
3 | COc1cccc2c1C(=O)c1c(O)c3c(c(O)c1C2=O)C[C@@](O)(C(=O)CO)C[C@@H]3O[C@H]1C[C@H](N)[C@H](O)[C@H](C)O1 [Doxorubicin hydrochloride] | 0.74 ± 0.1 | 0.519 ± 0.073 | 0.241 ± 0.014 | 1.03 ± 0.21 | 0.224 ± 0.021 | 0.125 ± 0.023 | 1.22 ± 0.78 | 2.02 ± 0.57 | 0.221 ± 0.12 | 1.36 ± 0.24 | 0.951 ± 0.2 | 0.00305 ± 0.005 | 2.05 ± 0.32 | 1.19 ± 0.22 | 0.314 ± 0.058 | 1.41 ± 0.11 | 2.77 ± 0.13 | 0.201 ± 0.12
4 | Clc1cccc(Cl)c1NC1=NCCN1 [Clonidine hydrochloride] | 1.25 ± 0.044 | 1.31 ± 0.029 | 1.19 ± 0.2 | 1.33 ± 0.062 | 1.04 ± 0.021 | 0.934 ± 0.012 | 0.68 ± 0.34 | 2.14 ± 0.65 | 1.23 ± 0.46 | 1.02 ± 0.045 | 0.699 ± 0.12 | 1.89 ± 1.1 | 1.2 ± 0.28 | 1.07 ± 0.076 | 1.34 ± 0.44 | 0.857 ± 0.23 | 0.975 ± 0.086 | 1.49 ± 0.052
5 | COc1ccc(/C=C/C(=O)Nc2ccccc2C(=O)O)cc1OC [Tranilast] | 1.18 ± 0.067 | 1.12 ± 0.05 | 1.1 ± 0.18 | 0.954 ± 0.038 | 1.19 ± 0.047 | 1.04 ± 0.16 | 0.643 ± 0.31 | 1.02 ± 0.2 | 3.66 ± 0.39 | 0.877 ± 0.12 | 0.831 ± 0.091 | 2.25 ± 0.59 | 1.28 ± 0.37 | 1.22 ± 0.59 | 1.25 ± 0.12 | 1.1 ± 0.16 | 0.865 ± 0.064 | 1.76 ± 0.13
6 | CN(C)CCOC(c1ccccc1)c1ccccc1 [Diphenhydramine hydrochloride] | 1.07 ± 0.038 | 1.27 ± 0.07 | 1.19 ± 0.069 | 1.11 ± 0.1 | 0.81 ± 0.062 | 1.33 ± 0.16 | 0.606 ± 0.18 | 0.807 ± 0.12 | 0.908 ± 0.19 | 0.715 ± 0.2 | 2.44 ± 1.5 | 0.902 ± 0.081 | 1.21 ± 0.27 | 0.965 ± 0.28 | 0.833 ± 0.18 | 1.22 ± 0.15 | 1.57 ± 0.14 | 1.1 ± 0.18
7 | CN1CCN(C2=Nc3cc(F)ccc3Cc3ccccc32)CC1 [Fluperlapine] | 0.925 ± 0.1 | 1.32 ± 0.17 | 1.17 ± 0.082 | 1.12 ± 0.27 | 1.06 ± 0.042 | 1.02 ± 0.12 | 0.882 ± 0.19 | 0.951 ± 0.38 | 0.385 ± 0.37 | 0.472 ± 0.33 | 0.937 ± 0.26 | 1.15 ± 0.3 | 1.16 ± 0.71 | 0.935 ± 0.18 | 0.891 ± 0.084 | 1.08 ± 0.29 | 0.843 ± 0.13 | 0.921 ± 0.14
8 | CCCCC[C@H](O)/C=C/[C@H]1[C@H](O)CC(=O)[C@@H]1CCCCCCC(=O)O [Prostaglandin E1] | 1.14 ± 0.098 | 1.31 ± 0.17 | 1.29 ± 0.084 | 1.2 ± 0.15 | 1.02 ± 0.12 | 1.6 ± 0.042 | 0.551 ± 0.04 | 1.13 ± 0.31 | 1.5 ± 0.24 | 0.525 ± 0.24 | 0.974 ± 0.18 | 1.08 ± 0.17 | 0.937 ± 0.2 | 1.68 ± 0.47 | 0.776 ± 0.17 | 0.953 ± 0.22 | 1.17 ± 0.37 | 0.991 ± 0.028
9 | O=C(O)/C=C/c1ccc(Cn2ccnc2)cc1 [Ozagrel hydrochloride] | 1.14 ± 0.17 | 1.39 ± 0.058 | 1.15 ± 0.22 | 1.54 ± 0.15 | 0.998 ± 0.036 | 0.998 ± 0.071 | 0.317 ± 0.1 | 0.951 ± 0.33 | 0.169 ± 0.18 | 0.597 ± 0.2 | 0.688 ± 0.094 | 1.3 ± 0.74 | 1.25 ± 0.31 | 0.99 ± 0.21 | 1.19 ± 0.084 | 0.893 ± 0.29 | 1.06 ± 0.043 | 1.24 ± 0.2
10 | OCCN(CCO)c1nc(N2CCCCC2)c2nc(N(CCO)CCO)nc(N3CCCCC3)c2n1 [Dipyridamole] | 1.1 ± 0.017 | 1.16 ± 0.092 | 1.21 ± 0.033 | 1.1 ± 0.094 | 1.15 ± 0.089 | 1.16 ± 0.24 | 0.973 ± 0.13 | 1.41 ± 0.46 | 0.847 ± 0.18 | 0.557 ± 0.093 | 0.761 ± 0.044 | 0.545 ± 0.1 | 1.11 ± 0.11 | 1.48 ± 0.62 | 0.995 ± 0.076 | 0.94 ± 0.17 | 0.967 ± 0.08 | 0.957 ± 0.19
11 | CNCCCCOc1ccccc1Cc1ccccc1 [Bifemelane hydrochloride] | 1.05 ± 0.25 | 1.17 ± 0.098 | 1.18 ± 0.029 | 1.24 ± 0.34 | 1.06 ± 0.14 | 0.963 ± 0.078 | 0.949 ± 0.12 | 1.05 ± 0.28 | 0.123 ± 0.05 | 0.508 ± 0.23 | 0.656 ± 0.03 | 0.606 ± 0.091 | 1.15 ± 0.19 | 1.15 ± 0.28 | 0.641 ± 0.19 | 1.17 ± 0.32 | 0.997 ± 0.1 | 0.868 ± 0.25
12 | COc1cc2nc(N3CCN(C(=O)c4ccco4)CC3)nc(N)c2cc1OC [Prazosin hydrochloride hydrate] | 1.39 ± 0.42 | 1.39 ± 0.057 | 0.986 ± 0.092 | 1.2 ± 0.36 | 1.01 ± 0.14 | 0.515 ± 0.061 | 0.541 ± 0.24 | 0.961 ± 0.26 | 0.28 ± 0.21 | 0.233 ± 0.26 | 0.784 ± 0.057 | 0.579 ± 0.29 | 1.23 ± 0.59 | 0.838 ± 0.2 | 1.17 ± 0.22 | 0.96 ± 0.12 | 1.03 ± 0.059 | 1.19 ± 0.24
13 | CCOC(=O)CCC(=O)O[C@H]1[C@H](O[C@@H]2[C@@H](C)[C@H](O[C@H]3C[C@@](C)(OC)[C@@H](O)[C@H](C)O3)[C@@H](C)C(=O)O[C@H](CC)[C@@](C)(O)[C@H](O)[C@@H](C)C(=O)[C@H](C)C[C@@]2(C)O)O[C@H](C)C[C@@H]1N(C)C [Eryped] | 1.42 ± 0.092 | 1.102 ± 0.006 | 1.46 ± 0.19 | 1.15 ± 0.027 | 1.231 ± 0.0047 | 1.27 ± 0.25 | – | 1.05 ± 0.3 | 0.513 ± 0.16 | 0.91 ± 0.18 | 0.593 ± 0.049 | 0.538 ± 0.12 | 0.833 ± 0.14 | 1.26 ± 0.087 | 0.957 ± 0.18 | 0.881 ± 0.12 | 0.96 ± 0.2 | 0.735 ± 0.075

Whole records, quoted from the list. Values in the order: Hoechst total cell count ratio (hAMSC donor 1 [1]; [7]) | Hoechst total cell count ratio (hAMSC donor 1 [1]; [8]) | Hoechst total cell count ratio (hAMSC donor 1 [1]; [9]) | Hoechst total cell count ratio (hAMSC donor 2 [2]; [7]) | Hoechst total cell count ratio (hAMSC donor 2 [2]; [8]) | Hoechst total cell count ratio (hAMSC donor 2 [2]; [9]) | transgenic luciferase activity (hAMSC donor 1 [3]; [7]) | transgenic luciferase activity (hAMSC donor 1 [3]; [8]) | transgenic luciferase activity (hAMSC donor 1 [3]; [9]) | transgenic luciferase activity (hAMSC donor 2 [4]; [7]) | transgenic luciferase activity (hAMSC donor 2 [4]; [8]) | transgenic luciferase activity (hAMSC donor 2 [4]; [9]) | transfection efficiency (hAMSC donor 1 [5]; [7]) | transfection efficiency (hAMSC donor 1 [5]; [8]) | transfection efficiency (hAMSC donor 1 [5]; [9]) | transfection efficiency (hAMSC donor 2 [6]; [7]) | transfection efficiency (hAMSC donor 2 [6]; [8]) | transfection efficiency (hAMSC donor 2 [6]; [9])
`COc1ccc(/C=C/C(=O)Nc2ccccc2C(=O)O)cc1OC` [Tranilast] as listed: 1.18 ± 0.067 | 1.12 ± 0.05 | 1.1 ± 0.18 | 0.954 ± 0.038 | 1.19 ± 0.047 | 1.04 ± 0.16 | 0.643 ± 0.31 | 1.02 ± 0.2 | 3.66 ± 0.39 | 0.877 ± 0.12 | 0.831 ± 0.091 | 2.25 ± 0.59 | 1.28 ± 0.37 | 1.22 ± 0.59 | 1.25 ± 0.12 | 1.1 ± 0.16 | 0.865 ± 0.064 | 1.76 ± 0.13
`COc1cccc2c1C(=O)c1c(O)c3c(c(O)c1C2=O)C[C@@](O)(C(=O)CO)C[C@@H]3O[C@H]1C[C@H](N)[C@H](O)[C@H](C)O1` [Doxorubicin hydrochloride] as listed: 0.74 ± 0.1 | 0.519 ± 0.073 | 0.241 ± 0.014 | 1.03 ± 0.21 | 0.224 ± 0.021 | 0.125 ± 0.023 | 1.22 ± 0.78 | 2.02 ± 0.57 | 0.221 ± 0.12 | 1.36 ± 0.24 | 0.951 ± 0.2 | 0.00305 ± 0.005 | 2.05 ± 0.32 | 1.19 ± 0.22 | 0.314 ± 0.058 | 1.41 ± 0.11 | 2.77 ± 0.13 | 0.201 ± 0.12
